# Data published in patent publication US20050010967A1, “SK3-1B GFP transgenic mouse model for spinocerebellar ataxia and hyperexcitable behavior” (The Regents of the University of California, priority 2003, published 2005).
# At least one compound was matched to its structure with a doubt left.
# System: endogenous Kv current in PC12 cells
# Experiment: Whole cell patch clamp of endogenous Kv current in PC12 cells
# Type: cell-based, rat
# Conditions: apamin 100 nM; untransfected PC12 cells
# Text: Electrophysiology. PC12 and Jurkat T cells were studied in the whole cell configuration of the patch clamp technique with a holding potential of −80 mV. We determined SK and Kv current amplitude in untransfected cells or in cells transfected with SK3-1B-GFP, SK3-1BIRES-GFP or control constructs (GFP vector alone, GFP-Kv1.7). […] Brightly GFP-positive cells were identified under a fluorescence microscope to allow the analysis of cells expressing high levels of the channel constructs for electrophysiological studies. Control constructs were expressed at equivalently high levels as assessed by the intensity of the GFP signal.
# To activate SK channels, the pipette solution contained (in mM): 145 K^+ aspartate, 2 MgCl2, 10 HEPES, 10 K2EGTA, and 8.5 CaCl2 (1 μM free Ca^2+), pH 7.2, 290-310 mOsm. […] The amplitude of the KV current was measured as the maximum current at 30 mV in 160 Na^+ aspartate. […]
smiles,measurement,value
"CC(C)C[C@@H]1NC(=O)[C@H](C)NC(=O)[C@H]([C@@H](C)O)NC(=O)[C@H](CCC(=O)O)NC(=O)[C@@H]2CCCN2C(=O)[C@H](C)NC(=O)[C@H](CCCCN)NC(=O)[C@@H]2CSSC[C@@H](C(=O)N[C@@H](CCC(N)=O)C(=O)N[C@@H](CCC(N)=O)C(=O)N[C@@H](Cc3cnc[nH]3)C(N)=O)NC(=O)[C@H](CCCNC(=N)N)NC(=O)[C@H](CCCNC(=N)N)NC(=O)[C@H](C)NC(=O)[C@H](CSSC[C@H](N)C(=O)N[C@@H](CC(N)=O)C(=O)N2)NC1=O [apamin, reference compound]",Effect on outward Kv current,not inhibited
